In publication PMC10163288:
Some of the results follow.

B1: il2ra_site1_2b5i_sap_10_mot_HHH_b1_05282_000000062_0001_1_18_H_._f0ee23d083d0677da3dfcc8a6cd225b6_0001_af2_0001_0000400018_0000001_0_0001_af2pred_dldesign_0_af2 … (protein)
chain: SSSSSSDPEAERKKLLDEAYEKANKEQKKELLKLYYLAQKTKDPEKLEKAVELAKEVLSSSSSSS
B2: il2ra_site1_3nfp_normal_mot_136a1b26558f6d63e39c8b7f62c9aa34_0001_af2_000000044_0001_17_31_H_._HHH_b2_05289_0001_0000500029_0000001_0_af2pred_0001_af2pred (protein)
chain: SSSSSSDEEEELEELAEKAKKITDPREAQKVVEEMVELVKRSGDPELHEFLREVMRELASSSSSS
B3: il2ra_site1_3nfp_sap_9_mot_HHH_b1_03479_af2_000000099_0001_1_19_H_._HHH_b2_00795_0001_0000100003_0000001_0_0001_af2pred_0001_af2pred_swapped (protein)
chain: SSSSSSEAEEEVEELLEEAKRIEDSKEANEVMRRAIKLARELNNEELRELIYKVLEELAKSSSSS
B4: il2ra_site1_2b5i_normal_mot_HHH_b2_04910_000000118_0001_1_19_H_._HHH_b2_07406_0001_0000200016_0000001_0_af2pred_0001_af2pred_1 (protein)
chain: SSSSSEEQERLRELLEKANKLDKNGNPEEAREVLEEAEELAEELGDKSARRLIEAALKLLESSSS
B5: il2ra_site1_3nfp_sap_15_mot_HHH_b2_01582_af2_000000000_0001_1_16_H_._HHH_b2_07153_0001_0000400022_0000001_0_0001 (protein)
chain: SSSSTIEELRELAELLKELSKTDEEEFERVFEEARKLAEEHGDKVARWLLEQYKRNLKERSSSSS
B6: il2ra_site1_3nfp_sap_17_mot_HHH_b1_02637_af2_000000013_0001_1_18_H_._HHH_b2_00825_af2_0001_0000400017_0000001_0_0001 (protein)
chain: SSSSSEAKEEFWRLIRELIRAQKEGDEELAKKLAELLEELAEERNDESALRVVEELLELLRSSSS
B7: il2ra_site2_3nfp_normal_mot_HHH_b1_05785_af2_000000002_0001_41_57_H_._HHH_b1_00695_af2_0001_0000100002_0000001_0 (protein)
chain: SSSSDEAEEYLRAAIELAERAAEEDPEIAEKSLELARKLAESLHDEEAKERIEELLEAIEESSSS
B8: il2ra_site2_3nfp_normal_mot_HHH_b2_07670_af2_000000034_0001_1_17_H_._HHH_b1_07540_af2_0001_0000500026_0000001_0 (protein)
chain: SSSDEEDLELAIEYALIAARLWGDEEVVKEIEELLERFRKEGDREYTTEVWELAREILEEGSSSS
B9: il2ra_site1_2b5i_sap_9_mot_HHH_b2_07540_af2_000000089_0001_1_16_H_._HHH_b1_01333_af2_0001_0000100003_0000001_0_0001_af2pred_0001_af2pred (protein)
chain: SSSSSSEELLELLREADELFKNGNPEEAEKVLERAEELAERNGTKSMLRSVRSMLELLRESSSSS
B10: il2ra_site2_2erj_sap_27_mot_HHH_b2_01204_af2_000000051_0001_19_34_H_._HHH_b2_01941_af2_0001_0000300007_0000001_0_0001_af2pred_0001_af2pred_swapped (protein)
chain: SSSSSSDEEEEVERLLEEAKEIKDKREALEILEEASRIASKAGDEELLELVQRVARELSSSSSSS
B11: il2ra_site1_2b5i_sap_14_mot_HHH_b1_01419_af2_000000080_0001_42_53_H_._ems_3hC_1598_af2_0001_0000100003_0000001_0_0001_af2pred_0001_af2pred (protein)
chain: SSSSSSQEKAFEWAERFIEQLIEEGDEEAARKAIEELRHLAERSNNPEMRKIVERLEEELSSSSS
B12: il2ra_site1_2b5i_sap_14_mot_HHH_b1_05017_af2_000000115_0001_1_18_H_._HHH_b2_01703_af2_0001_0000200005_0000001_0_0001_af2pred_0001_af2pred_1 (protein)
chain: SSSSDEAFHEVLELYRRASRLFQKGDKEEARKLLEEAQELAEEAGDEVAVKDLRRMLELLKSSSS
B13: il2ra_site2_2erj_normal_mot_8a316d4779eb53efc793250774d75e68_0001_af2_000000043_0001_18_32_H_._HHH_b1_04199_0001_0000200023_0000001_1 (protein)
chain: SSSSSSEYEERIEELIEEARRVSEEEAEKLLSEAFELAFRNNDVEIASEVIELVAELARASSSSS
B14: il2ra_site2_2erj_sap_21_mot_2e60acbd11533cd3bad2fa8ba2aa37e0_0001_af2_000000288_0001_35_49_H_._HHH_b1_03230_0001_0000300009_0000001_0_0001_af2pred_dldesign_0_af … (protein)
chain: SSSSSPEVKALIEETKRLLEKGEVEKAEEVLRKAALLAFAAGDEEQLDELAGLAGEIELAKSSSS
B15: il2ra_site2_3nfp_sap_26_mot_HHH_b1_06800_000000145_0001_39_52_H_._d0d4bb967d3a74cfb2645cd31ab01004_0001_af2_0001_0000100002_0000001_0_0001 (protein)
chain: SSSSSEAFRRSFRLVEAMIESLRSRGDEEYLQEIEELLEEAEEKKDPRLLLEAFKLALEAYSSSS
B16: il2ra_site2_2erj_normal_mot_HHH_b1_01129_af2_000000281_0001_18_33_H_._HHH_b2_07712_0001_0000200009_0000001_0 (protein)
chain: SSSSSSDEEEVEELLEEAKHITDLREAYRLLNEALRIASESQNEELLELILKVLEELASSSSSSS
B17: il2ra_site1_1z92_sap_26_mot_HHH_b1_02756_000000071_0001_20_37_H_._HHH_b1_08606_af2_0001_0000100004_0000001_0_0001 (protein)
chain: SSSSDQAREFLERLARSLVKNLELTGDPRARERLEMLLRDAEMNGDEEVVEFAREQLEELSSSSS
B18: il2ra_site1_2b5i_normal_mot_HHH_b1_01949_af2_000000041_0001_1_19_H_._HHH_b1_01257_af2_0001_0000300039_0000001_0 (protein)
chain: SSSSDEEEVQELFRRASELFRNGNPEEAEKVLREALELAEELNDENSERDLRFMLEQIRGSSSSS

Target: il2ra, P01589
Assay: yeast display titration

Apparent Kd, inactive:
B1 no binding seen
B2 no binding seen
B3 no binding seen
B4 no binding seen
B5 no binding seen
B6 no binding seen
B7 no binding seen
B8 no binding seen
B9 no binding seen
B10 no binding seen
B11 no binding seen
B12 no binding seen
B13 no binding seen
B14 no binding seen
B15 no binding seen
B16 no binding seen
B17 no binding seen
B18 no binding seen

Already shown: entries from further up.
Apparent Kd, inactive:
B3 no binding seen
B4 no binding seen
B5 no binding seen
